Reference: the supplement of paper PMC4604168 (melanoma cell lines)
Some of the results follow. Repeats are few or missing, and single values can be far off.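 Imaging used 1,536-well plates; nuclei positive for cleaved PARP by antibody were divided by total DNA-stained nuclei to yield the apoptosis fraction. Doses for screening kept most cells viable, and cell lines differ markedly in resting and induced cleaved-PARP levels.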

The compounds below were run on COLO792 (assay: cleaved PARP positive nuclei fraction relative to DMSO control; melanoma cells; higher = more apoptosis). Settings: library dose: low library concentration; 72 h.

Structure (SMILES)	cleaved PARP positive nuclei fraction
NCC(=O)Nc1ccc(-n2nc(C(F)(F)F)cc2-c2ccc3c(ccc4ccccc43)c2)cc1 + O=S(=O)(c1ccccc1)N(CC(F)(F)F)c1ccc(C(O)(C(F)(F)F)C(F)(F)F)cc1 [T0901317] (first compound 1 µM, partner dose 1.4 µM)	83.3%
CCCCCCCCCCCC1=C(O)C(=O)C=C(O)C1=O [Embelin] + CC(C)CCN1c2nc(Nc3cc(F)c(O)c(F)c3)ncc2N(C)C(=O)C1C [BID1870] (first compound 1.2 µM, partner dose 0.2 µM)	154%
CCc1ccc(CCOc2ccc(CC3SC(=O)NC3=O)cc2)nc1 (stereo unspecified) [pioglitazone] + Oc1nc(-c2ccc(C(F)(F)F)cc2)nc2c1CSCC2 [XAV939] (first compound 2 µM, partner dose 2 µM)	384%
COc1ccc2c(c1)CCC1C2CCC2(C)C(NCCCCCCN3C(=O)C=CC3=O)CCC12 (stereo unspecified) + COc1cc2ncnc(Nc3ccc(Oc4ccccc4)cc3)c2cc1OC [SrcI1] (first compound 0.4 µM, partner dose 2 µM)	116%
COc1ccc2c(c1)CCC1C2CCC2(C)C(NCCCCCCN3C(=O)C=CC3=O)CCC12 (stereo unspecified) + Oc1cc(-c2nc(-c3ccccc3)[nH]c2-c2ccncc2)ccc1Cl [L779450] (first compound 0.4 µM, partner dose 0.2 µM)	89.7%
COc1cc2ncnc(Nc3ccc(Oc4ccccc4)cc3)c2cc1OC + Cc1cc([N+](=O)[O-])ccc1NS(=O)(=O)c1cc(Cl)ccc1Cl [FH535] (first compound 2 µM, partner dose 1 µM)	192%
O=C(Nc1ccccc1)c1cc([N+](=O)[O-])ccc1Cl + CCN(CC)CCCCNc1ncc2cc(-c3cc(OC)cc(OC)c3)c(NC(=O)NC(C)(C)C)nc2n1 [PD173074] (first compound 2 µM, partner dose 0.1 µM)	96.8%
N#Cc1c(O)c2c(-c3ccc(-c4ccccc4O)cc3)csc2[nH]c1=O + O=C(O)C(=O)Nc1sc2c(c1C(=O)O)CCNC2 [TCS401] (first compound 2 µM, partner dose 1.66667 µM)	106%
NCC(=O)Nc1ccc(-n2nc(C(F)(F)F)cc2-c2ccc3c(ccc4ccccc43)c2)cc1 + Cc1cc([N+](=O)[O-])ccc1NS(=O)(=O)c1cc(Cl)ccc1Cl [FH535] (first compound 1 µM, partner dose 1 µM)	101%
CCc1ccc(CCOc2ccc(CC3SC(=O)NC3=O)cc2)nc1 (stereo unspecified) [pioglitazone] + CCCCCCCCCCCC1=C(O)C(=O)C=C(O)C1=O [Embelin] (first compound 2 µM, partner dose 1.2 µM)	61.2%
Oc1nc(-c2ccc(C(F)(F)F)cc2)nc2c1CSCC2 + CCCCCCCCCCCC1=C(O)C(=O)C=C(O)C1=O [Embelin] (first compound 2 µM, partner dose 1.2 µM)	147%
Cc1cc([N+](=O)[O-])ccc1NS(=O)(=O)c1cc(Cl)ccc1Cl + COc1cc(N2CCC(N3CCN(C)CC3)CC2)ccc1Nc1ncc(Cl)c(Nc2ccccc2S(=O)(=O)C(C)C)n1 [NVP-TAE684] (first compound 1 µM, partner dose 0.08 µM)	95.2%
COc1cc2ncnc(Nc3ccc(Oc4ccccc4)cc3)c2cc1OC + Cn1cc(/C=C2\C(=O)Nc3cccnc32)c2ccccc21 [GW441756] (first compound 2 µM, partner dose 0.4 µM)	22.8%
CN(C)S(=O)(=O)c1ccc2c(c1)/C(=C/c1cc3c([nH]1)CCCC3)C(=O)N2 + O=C1NC(=O)/C(=C/c2ccc(-c3ccc(F)cc3O)o2)S1 [AS252424] (first compound 0.4 µM, partner dose 1 µM)	48%
COc1cc2ncnc(Nc3ccc(Oc4ccccc4)cc3)c2cc1OC + CCCCCCCCCCCC1=C(O)C(=O)C=C(O)C1=O [Embelin] (first compound 2 µM, partner dose 1.2 µM)	81.2%
O=C(O)c1ccc(-c2c[nH]c3ncc(-c4ccccc4)cc23)cc1C1CCCC1 + COc1cc2ncnc(Nc3ccc(Oc4ccccc4)cc3)c2cc1OC [SrcI1] (first compound 0.16 µM, partner dose 2 µM)	69.4%

Two entries from above, bar-delimited.
Structure (SMILES) | cleaved PARP positive nuclei fraction
CCc1ccc(CCOc2ccc(CC3SC(=O)NC3=O)cc2)nc1 (stereo unspecified) [pioglitazone] + Oc1nc(-c2ccc(C(F)(F)F)cc2)nc2c1CSCC2 [XAV939] (first compound 2 µM, partner dose 2 µM) | 384%
COc1ccc2c(c1)CCC1C2CCC2(C)C(NCCCCCCN3C(=O)C=CC3=O)CCC12 (stereo unspecified) + COc1cc2ncnc(Nc3ccc(Oc4ccccc4)cc3)c2cc1OC [SrcI1] (first compound 0.4 µM, partner dose 2 µM) | 116%
